The values that follow are results of earlier work, collected in US11285170B2, “Fractionated antimicrobial compositions and use thereof” (priority 2017, dated 2022).

Each structure is given as a SMILES string.

The subject of the data set is Pseudomonas aeruginosa AGR 18 and MR23 multiresistant. The conditions noted are these: P. aeruginosa; cited from earlier work.
For the compound `C[C@H]1[C@H](NC(=O)/C(=N\OC(C)(C)C(=O)O)c2csc(N)n2)C(=O)N1S(=O)(=O)O` [Aztreonam, aztreonam], the Susceptibility breakpoint is no more than 8 µg/mL.
Regarding `CCN1CCN(C(=O)N[C@@H](C(=O)N[C@@H]2C(=O)N3[C@@H]2SC(C)(C)[C@@H]3C(=O)O)c2ccccc2)C(=O)C1=O` [Piperacillin], the Susceptibility breakpoint was no more than 16 µg/mL.
For the compound `NCC[C@H](O)C(=O)N[C@@H]1C[C@H](N)[C@@H](O[C@H]2O[C@H](CN)[C@@H](O)[C@H](O)[C@H]2O)[C@H](O)[C@H]1O[C@H]1O[C@H](CO)[C@@H](O)[C@H](N)[C@H]1O` [Amikacin], the Susceptibility breakpoint is no more than 16 µg/mL.
Regarding `CC(C)(O/N=C(\C(=O)N[C@@H]1C(=O)N2C(C(=O)[O-])=C(C[n+]3ccccc3)CS[C@H]12)c1csc(N)n1)C(=O)O` [Ceftazidime], the Susceptibility breakpoint is no more than 8 µg/mL.
Regarding `NC[C@H]1O[C@H](O[C@H]2[C@H](O)[C@@H](O[C@H]3O[C@H](CO)[C@@H](O)[C@H](N)[C@H]3O)[C@H](N)C[C@@H]2N)[C@H](N)C[C@@H]1O` [Tobramycin, tobramycin], the Susceptibility breakpoint was no more than 4 µg/mL.
